PMC6760441, “Structural insights into stressosome assembly” (IUCrJ, 2019)
Residue numbers refer to the chain shown, from its start. Numbers in names are those of the source. Results are given in words; binding and its absence hold for the method and conditions named. Binding seen in cells or lysates may run through a third protein. Some results given as binding are weak or reduced against the parent protein; the word gives no strength. Where a sequence is shown, tags or fusion partners need not be part of it.

B1: RsbRA Q236A (protein, UniProt P42409 1-274)
chain: MMSNQTVYQFIAENQNELLQLWTDTLKELSEQESYQLTDQVYENISKEYIDILLLSVKDENAAESQISELALRAVQIGLSMKFLATALAEFWKRLYTKMNDKRLPDQESTELIWQIDRFFSPINTEIFNQYSISWEKTVSLQKIALQELSAPLIPVFENITVMPLVGTIDTERAKRIMENLLNGVVKHRSQVVLIDITGVPVVDTMVAHHIIQASEAVRLVGAKCLLAGIRPEIAATIVNLGIDLSQVITKNTLQKGIQTALEMTDRKIVSLGE
B2: RsbRA N252A (protein, UniProt P42409 1-274)
chain: B1 chain with A236Q, N252A
B3: RsbRA Q236A/N252A (protein, UniProt P42409 1-274)
chain: B1 chain with N252A
B4: RsbRA (Bacillus subtilis), full length, residues 1-274, native (pET-22b), of the RsbRA-RsbS complex (natural protein, Bacillus subtilis strain 168, UniProt P42409 1-274, looked up)
chain: B1 chain with A236Q
notes: RsbRA, Bacillus subtilis strain 168 (ATCC 23857), full length, residues 1-274; N-terminal nonheme globin domain and C-terminal STAS domain; also called native RsbRA; source: E. coli BL21 Star (DE3), co-purified with 6xHis-thioredoxin-RsbS (IMAC, TEV cleavage, SEC)

These binders were tested against T1, His-GST-RsbS (Bacillus subtilis strain 168) (UniProt P42410) (assay: pull-down; clarified E. coli lysates with His-GST-RsbS and with RsbRA (native or mutant) mixed, loaded onto GST Sepharose, washed with 20 mM HEPES pH 7.5, 0.2 M NaCl, 5% glycerol; eluted with SDS sample buffer, SDS-PAGE).
T1 sequence: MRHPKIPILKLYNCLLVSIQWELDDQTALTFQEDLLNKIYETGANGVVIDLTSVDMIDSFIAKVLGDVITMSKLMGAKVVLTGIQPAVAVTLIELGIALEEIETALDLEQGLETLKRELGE

| Binder | binding |
| --- | --- |
| B1 | binds |
| B2 | binds |
| B3 | binds |
| B4 | binds |
